Laboratory results published in doi:10.1101/2025.04.30.651444.
No constants are given. Whether binding was seen depends on the method and setting. In cells and extracts the contact can be indirect. Some binding calls cover weakened binding; strength is not graded here. Where a sequence is shown, tags or fusion partners need not be part of it. Values belong to the binder of their own block, whether it stands above or below them.

By UniProt entry, the sequences of proteins in these tests, tags left out. Where a name states a change or a piece, a line headed by the entry shows the natural chain unless it says otherwise.
UniProt Q12150, whole entry: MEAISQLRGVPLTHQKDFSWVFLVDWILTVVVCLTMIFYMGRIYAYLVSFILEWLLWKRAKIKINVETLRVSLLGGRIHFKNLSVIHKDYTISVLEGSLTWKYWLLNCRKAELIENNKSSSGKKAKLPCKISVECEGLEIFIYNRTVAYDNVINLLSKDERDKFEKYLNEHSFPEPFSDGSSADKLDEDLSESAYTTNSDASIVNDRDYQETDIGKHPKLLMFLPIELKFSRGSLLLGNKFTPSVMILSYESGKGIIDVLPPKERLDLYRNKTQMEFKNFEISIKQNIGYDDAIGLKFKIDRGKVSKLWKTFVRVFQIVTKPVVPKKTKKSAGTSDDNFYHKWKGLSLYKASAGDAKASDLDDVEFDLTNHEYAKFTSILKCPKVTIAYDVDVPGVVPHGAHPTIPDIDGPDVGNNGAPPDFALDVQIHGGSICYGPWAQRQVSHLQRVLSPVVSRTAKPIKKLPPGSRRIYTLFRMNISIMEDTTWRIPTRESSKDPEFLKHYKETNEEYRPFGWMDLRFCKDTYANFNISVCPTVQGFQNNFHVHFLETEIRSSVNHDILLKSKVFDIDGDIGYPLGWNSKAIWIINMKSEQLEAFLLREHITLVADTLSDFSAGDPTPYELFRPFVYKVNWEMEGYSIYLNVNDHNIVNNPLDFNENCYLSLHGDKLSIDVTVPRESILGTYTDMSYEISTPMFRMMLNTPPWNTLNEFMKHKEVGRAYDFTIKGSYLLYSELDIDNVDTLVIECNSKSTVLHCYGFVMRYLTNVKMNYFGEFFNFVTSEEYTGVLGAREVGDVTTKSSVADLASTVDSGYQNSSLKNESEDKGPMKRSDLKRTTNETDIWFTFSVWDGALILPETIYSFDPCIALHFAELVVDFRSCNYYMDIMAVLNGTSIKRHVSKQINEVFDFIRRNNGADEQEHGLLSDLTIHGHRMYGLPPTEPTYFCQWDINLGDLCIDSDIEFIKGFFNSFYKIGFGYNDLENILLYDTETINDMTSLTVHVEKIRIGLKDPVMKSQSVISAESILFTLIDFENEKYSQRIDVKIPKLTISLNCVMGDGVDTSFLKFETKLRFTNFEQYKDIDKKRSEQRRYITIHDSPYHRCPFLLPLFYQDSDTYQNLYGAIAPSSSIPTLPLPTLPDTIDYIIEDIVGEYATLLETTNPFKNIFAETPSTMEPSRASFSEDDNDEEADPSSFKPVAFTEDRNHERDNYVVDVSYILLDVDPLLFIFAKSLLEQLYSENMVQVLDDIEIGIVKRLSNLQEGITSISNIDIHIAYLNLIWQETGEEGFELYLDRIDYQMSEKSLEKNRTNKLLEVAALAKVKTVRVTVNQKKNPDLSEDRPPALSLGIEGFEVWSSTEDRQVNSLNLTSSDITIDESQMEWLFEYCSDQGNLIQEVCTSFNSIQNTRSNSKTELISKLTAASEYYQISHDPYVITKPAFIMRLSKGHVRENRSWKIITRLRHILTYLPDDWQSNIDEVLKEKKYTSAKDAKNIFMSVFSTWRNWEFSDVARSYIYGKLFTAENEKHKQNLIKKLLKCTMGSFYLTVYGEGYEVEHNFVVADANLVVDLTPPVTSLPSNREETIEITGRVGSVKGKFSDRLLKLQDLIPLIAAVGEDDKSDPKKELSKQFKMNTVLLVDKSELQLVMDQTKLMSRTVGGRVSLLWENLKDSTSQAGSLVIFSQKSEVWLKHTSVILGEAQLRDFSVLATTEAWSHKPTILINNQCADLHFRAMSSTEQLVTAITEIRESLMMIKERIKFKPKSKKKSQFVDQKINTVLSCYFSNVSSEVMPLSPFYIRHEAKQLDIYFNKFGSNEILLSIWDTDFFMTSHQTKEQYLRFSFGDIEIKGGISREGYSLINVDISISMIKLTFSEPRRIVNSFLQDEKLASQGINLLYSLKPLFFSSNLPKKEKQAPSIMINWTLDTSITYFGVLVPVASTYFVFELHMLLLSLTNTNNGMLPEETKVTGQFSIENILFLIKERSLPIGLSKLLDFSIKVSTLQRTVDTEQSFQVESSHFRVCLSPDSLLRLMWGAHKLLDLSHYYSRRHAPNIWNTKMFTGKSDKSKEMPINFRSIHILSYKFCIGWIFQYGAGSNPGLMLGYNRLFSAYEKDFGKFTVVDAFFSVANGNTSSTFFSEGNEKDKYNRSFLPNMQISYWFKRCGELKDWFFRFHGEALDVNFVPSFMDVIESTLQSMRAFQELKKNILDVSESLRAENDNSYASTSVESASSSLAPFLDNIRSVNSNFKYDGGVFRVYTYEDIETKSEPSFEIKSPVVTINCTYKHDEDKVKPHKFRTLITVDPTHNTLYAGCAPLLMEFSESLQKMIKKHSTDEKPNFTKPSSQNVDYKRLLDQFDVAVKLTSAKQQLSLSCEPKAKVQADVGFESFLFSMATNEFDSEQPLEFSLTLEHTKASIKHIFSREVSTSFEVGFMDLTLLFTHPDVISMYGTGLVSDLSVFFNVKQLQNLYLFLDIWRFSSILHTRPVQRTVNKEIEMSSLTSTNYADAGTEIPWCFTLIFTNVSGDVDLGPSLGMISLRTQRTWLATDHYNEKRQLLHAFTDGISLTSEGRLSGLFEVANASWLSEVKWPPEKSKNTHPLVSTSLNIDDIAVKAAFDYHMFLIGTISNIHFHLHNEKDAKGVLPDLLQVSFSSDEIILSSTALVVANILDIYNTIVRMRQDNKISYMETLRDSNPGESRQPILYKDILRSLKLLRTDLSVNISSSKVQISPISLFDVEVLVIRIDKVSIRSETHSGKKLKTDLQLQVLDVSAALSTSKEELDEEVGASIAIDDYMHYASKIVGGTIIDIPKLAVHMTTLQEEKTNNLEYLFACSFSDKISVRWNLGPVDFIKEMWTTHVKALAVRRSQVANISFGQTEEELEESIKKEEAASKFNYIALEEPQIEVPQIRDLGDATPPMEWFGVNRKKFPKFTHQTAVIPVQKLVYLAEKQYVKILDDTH

Target: Csf1 tagged internally with the Envy variant of GFP (Csf1^GFP) (S. cerevisiae) (UniProt Q12150)
Test: co-IP

binding: binds
B1: May24-HA (Ypr153w/May24, yeast TMEM170 family protein) (protein, UniProt Q06537 1-140)
chain: MRSFVTNNDIPVGYVTPKFPSLYWPINNSKYNTAFLYYISDIWKFSLYWTLIFNGAFYVTAGVYASLTHRKKAGSVWIFVMYVLYGGVQGLTTGTVMGFLIGAIYRSGLFSMSTWVPLCCAVVQILFDVVLSYSMVGSVM

binding: binds
B2: Dlt1-HA (Ymr126c/Dlt1) (protein, UniProt Q04216 1-342)
chain: MSGFAKLKSWLYKASLFVSLILLIGFSVVLPIDSIAQASKSENNAFNTFIVVGALVVFGVFCIFIIIGRMLFHKSCLKDIPRRYIPITPADLPHRSSREAVLQNMERSKELTILLKKPKDPVIHDGLEPPRRCDYPLDEKLFPEYLNYADCIKSLTDRLKYHGLFLNNLDVRMNLEDTFADVVNSQFVNHNANKIQLEKAKEFIDLYETIRFSGKDVTRDQFIKFVKFCLYFGEVSLTRDTSFANLHNFRLNGSSNNIGRTESKYSINPFDENEYAQDDMHYFPEPPTHLVRESSISTVARHVSSGVDLTNSEEHPLDTDSDCNALRLKLSKADSYRSVIRH
